81 compounds from the supplement of paper PMC3682954 can be followed below.

The experiment relates to RAW 264.7. The experiment in a line: cell viability (MTT) relative to vehicle control; higher = more viable cells. Conditions: stimulus: HMGB1 5 ug/ml, 18 h.
Setting [1] is: compound concentration: 1 ug/ml.

Broadly, the cell viability is a read-out of living cells in per cent, often relative to untreated cells.

Values joined by “and” are separate entries in the source; they are usually repeats but may differ in a detail not shown here. Equal values may be shown once. Where a name gives a salt, the structure may show the parent alone. ± gives the standard deviation of the averaged measurements. This is one part of the list. Repeats are few or missing, and single values can be far off.

As for `COc1cc(CNC(=O)CCCC/C=C/C(C)C)ccc1O` [Capsaicin], the cell viability under setting [1] was determined as 95.9% and the cell viability (compound concentration: 3 uM) was found to be 104 ± 10%.
For the compound `COc1cc(CNC(=O)CCCC/C=C/C(C)C)ccc1O`, the cell viability (compound concentration: 3 uM) amounted to 108%.
In the case of `O=C(O)[C@@H]1[C@H]2C[C@H]3c4[nH]c5ccccc5c4CCN3C[C@@H]2CC[C@@H]1O` [Yohimbinic acid monohydrate], under setting [1], the cell viability came to 88.6%.
On to `C[C@]12CC[C@@H]3c4ccc(O)cc4C[C@@H](CCCCCCCCC[S+]([O-])CCCC(F)(F)C(F)(F)F)[C@H]3[C@@H]1CC[C@@H]2O` (stereo partly drawn) [Fulvestrant], for which the cell viability (compound concentration: 3 uM) came to 110 ± 2%.
With `COC(=O)[C@H](Cc1ccccc1)NC(=O)[C@@H](N)CC(=O)O`, where the note is “compound concentration: 3 uM”, the cell viability is 106%.
Turning to `C1CCC(N=C(NC23CC4CC(CC(C4)C2)C3)N2CCOCC2)CC1`, the cell viability (compound concentration: 3 uM) is 118%.
With `O=C(/C=C/c1ccc(O)c(O)c1)O[C@H](Cc1ccc(O)c(O)c1)C(=O)O` [Rosmarinic acid], the cell viability under setting [1] was 94.9%.
`CCCCOc1cc(C(=O)OCCN(CC)CC)ccc1N` [Benoxinate hydrochloride]: the cell viability (compound concentration: 3 uM) amounted to 105%.
Same read-out and setting: to `NC(N)=N[C@@H](CCC(=O)O)C(=O)O` [alpha-Guanidinoglutaric acid] belongs 107%.
On to `NC(Cc1cnc[nH]1)C(=O)O` (racemic) [DL-Histidine hydrochloride, monohydrate], for which the cell viability under setting [1] worked out at 95.3%.
`C[N+](C)(C)CC(O)CC(=O)[O-]` (stereo not drawn): for the setting “compound concentration: 3 uM”, the cell viability was 105%.
Consider `O=C(O)CCC(C(=O)O)N1C(=O)c2ccccc2C1=O` [L-Glutamic acid, N-phthaloyl-], for which the cell viability (compound concentration: 3 uM) worked out at 103%.
Turning to `CC(C)Oc1ccc2c(=O)c(-c3ccccc3)coc2c1` [Ipriflavone], the cell viability under setting [1] was 92.2%.
Turning to `CC(C)Oc1ccc2c(=O)c(-c3ccccc3)coc2c1`, the cell viability (compound concentration: 3 uM) amounted to 104 ± 9.9%.
Consider `CC(=O)Nc1nnc(S(N)(=O)=O)s1`, for which the cell viability (compound concentration: 3 uM) is 111%.
The same measure, in the same setting: next, `CC(=O)Nc1nnc(S(N)(=O)=O)s1` [Acetazolamide]: 106 ± 2.3%; `Cc1cc2cc3c(C)cc(=O)oc3c(C)c2o1`: 110%.
In the case of `Cc1cc2cc3c(C)cc(=O)oc3c(C)c2o1` [Trioxsalen], the cell viability (compound concentration: 3 uM) was determined as 113%.
Same read-out and setting: next, `CC(=O)Nc1c(I)cc(I)c(C(=O)O)c1I`: 107%; `Clc1ccc2nsnc2c1NC1=NCCN1` [Tizanidine]: 89.2%; `Clc1ccc2nsnc2c1NC1=NCCN1` [Tizanidine HCl]: 114%.
The same measure, in the same setting: to `Clc1ccc2nsnc2c1NC1=NCCN1` [Tizanidine hydrochloride] belongs 131%.
Still for that read-out and setting: next, `CCCCCCNC(=O)n1cc(F)c(=O)[nH]c1=O`: 102 ± 4.1%.
As for `CCC[C@@H]1C[C@@H](C(=O)N[C@@H]([C@H]2O[C@H](SC)[C@H](OP(=O)(O)O)[C@@H](O)[C@H]2O)[C@H](C)Cl)N(C)C1` [clindamycin 2-phosphate], the cell viability under setting [1] was found to be 108%.
For the compound `CCC[C@@H]1C[C@@H](C(=O)N[C@@H]([C@H]2O[C@H](SC)[C@H](OP(=O)(O)O)[C@@H](O)[C@H]2O)[C@H](C)Cl)N(C)C1` [Clindamycin Phosphate], the cell viability (compound concentration: 3 uM) was 105%.
As to `CCCOc1ccccc1-c1nc2[nH]nnc2c(=O)[nH]1` [Zaprinast], the cell viability (compound concentration: 3 uM) amounted to 98.8 ± 5.7%.
On the same count and under the same terms, next, `CCCOc1ccccc1-c1nc2[nH]nnc2c(=O)[nH]1`: 109%.
As to `COC(=O)C1=CO[C@@H](O)[C@@H]2C(CO)=CC[C@H]12` [Genipin], the cell viability by setting is: under setting [1], 108%; (compound concentration: 3 uM) 112%.
Consider `CC#C[C@]1(O)CC[C@H]2[C@@H]3CCC4=CC(=O)CCC4=C3[C@@H](c3ccc(N(C)C)cc3)C[C@@]21C` [Mifepristone], for which the cell viability (compound concentration: 3 uM) was 107 ± 14%.
For the compound `CC#C[C@]1(O)CC[C@H]2[C@@H]3CCC4=CC(=O)CCC4=C3[C@@H](c3ccc(N(C)C)cc3)C[C@@]21C`, the cell viability (compound concentration: 3 uM) came to 101%.
Still for that read-out and setting: to `COc1cc(SC)ccc1C(=O)N1CCC(Cc2ccccc2)CC1` belongs 105%; to `CC(C)=CCC1=C(O)C(=O)c2ccccc2C1=O`, 87%; to `Nc1nc(=O)n([C@@H]2CS[C@H](CO)O2)cc1F` [Emtricitabine], 103%.
Turning to `COc1ccc(Cl)cc1C(=O)NCCc1ccc(S(=O)(=O)NC(=O)NC2CCCCC2)cc1` [Glybenclamide], the cell viability (compound concentration: 3 uM) stood at 103%.
The same measure, in the same setting: to `COc1ccc(Cl)cc1C(=O)NCCc1ccc(S(=O)(=O)NC(=O)NC2CCCCC2)cc1` belongs 102%; to `COc1ccc(Cl)cc1C(=O)NCCc1ccc(S(=O)(=O)NC(=O)NC2CCCCC2)cc1` [Glyburide], 108%.
Same read-out and setting: to `COc1ccc(Cl)cc1C(=O)NCCc1ccc(S(=O)(=O)NC(=O)NC2CCCCC2)cc1` [Glibenclamide] belongs 106%; to `O=c1ccn([C@@H]2O[C@H](COP(=O)(O)OP(=O)(O)O)[C@@H](O)[C@H]2O)c(=O)[nH]1` [Uridine 5'-diphosphate sodium], 117%; to `CC(C(O)c1ccc(O)cc1)N1CCC(Cc2ccccc2)CC1` (stereo not drawn) [Ifenprodil tartrate], 103 ± 10%.
The same measure, in the same setting: next, `CC(C(O)c1ccc(O)cc1)N1CCC(Cc2ccccc2)CC1` (stereo not drawn) [Ifenprodil]: 102 ± 4.8%.
Consider `CC(C(O)c1ccc(O)cc1)N1CCC(Cc2ccccc2)CC1` (stereo not drawn), for which the cell viability (compound concentration: 3 uM) is 115%.
Still for that read-out and setting: to `C[C@@H]1C/C=C/C=C/C=C/C=C/[C@H](O[C@@H]2O[C@H](C)[C@@H](O)[C@H](N)[C@@H]2O)C[C@@H]2O[C@](O)(C[C@@H](O)C[C@H]3O[C@@H]3/C=C/C(=O)O1)C[C@H](O)[C@H]2C(=O)O` belongs 107%; to `O=C(O)C1=CC(=C(c2ccc(O)c(C(=O)O)c2)c2ccc(O)c(C(=O)O)c2)C=CC1=O` [Aurintricarboxylic acid], 99.3%.
As for `NC(C(=O)O)C(O)C(=O)O` (racemic) [DL-threo-beta-hydroxyaspartic acid], under “compound concentration: 3 uM”, the cell viability came to 114%.
`CCCn1c(=O)c(C)cn2nc(N)nc12`: the cell viability (compound concentration: 3 uM) worked out at 109%.
The same measure, in the same setting: next, `Cc1cc(C)nc(NS(=O)(=O)c2ccc(N)cc2)n1` [Sulfamethazine sodium salt]: 141%.
In the case of `Cc1cc(C)nc(NS(=O)(=O)c2ccc(N)cc2)n1`, the cell viability (compound concentration: 3 uM) is 101%.
Still for that read-out and setting: next, `COc1cc(NS(=O)(=O)c2ccc(N)cc2)ncn1`: 111%; `COc1cc(NS(=O)(=O)c2ccc(N)cc2)ncn1` [Sulfamonomethoxine]: 116%; `CC1(C)O[C@@H]2C[C@H]3[C@@H]4C[C@H](F)C5=CC(=O)C=C[C@]5(C)[C@@]4(F)[C@@H](O)C[C@]3(C)[C@]2(C(=O)CO)O1` [Fluocinolone acetonide]: 105 ± 1.4%.
Same read-out and setting: next, `CC1(C)O[C@@H]2C[C@H]3[C@@H]4C[C@H](F)C5=CC(=O)C=C[C@]5(C)[C@@]4(F)[C@@H](O)C[C@]3(C)[C@]2(C(=O)CO)O1`: 115%; `COC(=O)N/N=C/c1c[n+]([O-])c2ccccc2[n+]1[O-]`: 105%; `COC(=O)N/N=C/c1c[n+]([O-])c2ccccc2[n+]1[O-]` [Carbadox]: 96.7 ± 2%.
For `CN(C(=O)CN(CCO)CC(=O)N(C)C(C)(C)Cc1ccccc1)C(C)(C)Cc1ccccc1` [Oxethazaine], the cell viability (compound concentration: 3 uM) was 114%.
For `CN(C(=O)CN(CCO)CC(=O)N(C)C(C)(C)Cc1ccccc1)C(C)(C)Cc1ccccc1`, the cell viability (compound concentration: 3 uM) was 97.7%.
As to `Cn1cc(C(F)(F)F)nc1-c1ccc(OCC(O)CNCCOc2ccc(O)c(C(N)=O)c2)cc1` (stereo not drawn), the cell viability (compound concentration: 3 uM) is 112%.
`CN1CCN2c3ncccc3Cc3ccccc3C2C1` (stereo not drawn): for the setting “compound concentration: 3 uM”, the cell viability worked out at 98.8%.
Same read-out and setting: next, `CN1CCN2c3ncccc3Cc3ccccc3C2C1` (stereo not drawn) [Mirtazapine]: 81.3%; `CC(C)[C@H](N)C(=O)OCCOCn1cnc2c(=O)nc(N)[nH]c21` [Valaciclovir]: 101%; `CC(C)[C@H](N)C(=O)OCCOCn1cnc2c(=O)nc(N)[nH]c21`: 98.1% and 107%.
The same measure, in the same setting: to `CCOC(=O)/C=C(C)/C=C/C=C(C)/C=C/c1c(C)cc(OC)c(C)c1C` [Etretinate] belongs 117 ± 4.5%; to `CCOC(=O)Nc1nc2ccccc2[nH]1`, 108%.
Still for that read-out and setting: to `C=C/C(C)=C/[C@@]1(C)SC(=O)C(C)=C1O` [Thiolactomycin] belongs 102%.
Regarding `COc1ccc2c(c1)c(CC(=O)O)c(C)n2C(=O)c1ccccc1` [1-benzoyl-5-methoxy-2-methylindole-3-acetic acid], the cell viability (compound concentration: 3 uM) turned out to be 116%.
In the case of `Nc1nc2c(cnn2CCc2ccccc2)c2nc(-c3ccco3)nn12`, the cell viability (compound concentration: 3 uM) came out at 109%.
Turning to `OC[C@H]1O[C@@H](n2cnc3c(Cl)ncnc32)[C@H](O)[C@@H]1O` [6-Chloropurine riboside], the cell viability under setting [1] amounted to 90.4%.
Regarding `Cc1c(N)c(=O)n(-c2ccccc2)n1C` [Ampyrone], under “compound concentration: 3 uM”, the cell viability was determined as 103%.
For `COc1ccc(CC(=O)c2c(O)cc(O)cc2O)cc1O`, under setting [1], the cell viability was 90.1%.
Consider `C=CCOc1ccccc1OCC(O)CNC(C)C` (stereo not drawn) [Oxprenolol hydrochloride], for which, for the setting “compound concentration: 3 uM”, the cell viability came to 90.9%.
`COc1cc(-c2cc(=O)c3ccccc3o2)ccc1O`: the cell viability under setting [1] worked out at 94.3%.
On to `NC[C@H]1O[C@H](O[C@H]2[C@H](O)[C@@H](O[C@H]3O[C@H](CO)[C@@H](O)[C@H](N)[C@H]3O)[C@H](N)C[C@@H]2N)[C@H](N)C[C@@H]1O` [Tobramycin (free base)], for which the cell viability (compound concentration: 3 uM) stood at 104%.
In the case of `NC[C@H]1O[C@H](O[C@H]2[C@H](O)[C@@H](O[C@H]3O[C@H](CO)[C@@H](O)[C@H](N)[C@H]3O)[C@H](N)C[C@@H]2N)[C@H](N)C[C@@H]1O`, the cell viability (compound concentration: 3 uM) worked out at 104 ± 7.9%.
Still for that read-out and setting: next, `NC[C@H]1O[C@H](O[C@H]2[C@H](O)[C@@H](O[C@H]3O[C@H](CO)[C@@H](O)[C@H](N)[C@H]3O)[C@H](N)C[C@@H]2N)[C@H](N)C[C@@H]1O` [Tobramycin]: 92.9%; `C[C@@H]1C[C@H]2[C@@H]3CCC4=CC(=O)C=C[C@]4(C)[C@@]3(F)[C@@H](O)C[C@]2(C)[C@H]1C(=O)CO`: 108%; `CCN(CC)CCOCCOC(=O)C1(c2ccccc2)CCCC1` [Carbetapentane citrate]: 100.8 ± 0.96%.
With `CCN(CC)CCOCCOC(=O)C1(c2ccccc2)CCCC1`, the cell viability (compound concentration: 3 uM) was found to be 118%.
On to `O=C(c1cc(O)c(O)c([N+](=O)[O-])c1)c1ccccc1F`, for which the cell viability (compound concentration: 3 uM) was found to be 123%.
Take `O=P(O)(O)C(O)(Cn1ccnc1)P(=O)(O)O` [Zoledronic acid]: the cell viability (compound concentration: 3 uM) amounted to 93.7%.
The same measure, in the same setting: to `CCN(CCCCOC(=O)c1ccc(OC)c(OC)c1)C(C)Cc1ccc(OC)cc1` (stereo not drawn) belongs 112%; to `CCN(CCCCOC(=O)c1ccc(OC)c(OC)c1)C(C)Cc1ccc(OC)cc1` (stereo not drawn) [Mebeverine hydrochloride], 102%.
Still for that read-out and setting: to `CCN(CC)C(=O)C1(c2ccccc2)CC1CN` (stereo not drawn) [Milnacipran] belongs 94.8%.
